Numbering of substitutions follows the chain as printed. Results are given in words; binding and its absence hold for the method and conditions named. For some assays here: Binding calls can cover weak binding; strength is not graded here. For some assays here: Binding seen in cells or lysates may run through a third protein. For some assays here: Tags and fused reporters may be left off the sequences shown.
Tests used:
[1] = biological target: T1, FBP1 (mouse liver) (mouse (endogenous in liver)) (UniProt Q9QXD6); assay: proximity ligation
T1 sequence: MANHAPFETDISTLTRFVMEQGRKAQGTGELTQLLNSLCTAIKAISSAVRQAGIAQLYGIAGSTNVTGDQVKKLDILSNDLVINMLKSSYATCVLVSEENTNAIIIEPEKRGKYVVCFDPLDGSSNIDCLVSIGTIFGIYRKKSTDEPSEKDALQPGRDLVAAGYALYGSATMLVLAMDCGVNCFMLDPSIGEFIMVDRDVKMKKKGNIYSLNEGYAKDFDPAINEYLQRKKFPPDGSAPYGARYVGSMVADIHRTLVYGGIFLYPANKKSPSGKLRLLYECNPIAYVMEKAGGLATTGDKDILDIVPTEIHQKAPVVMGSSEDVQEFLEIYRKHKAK

By UniProt entry, the sequences of proteins in these tests, tags left out. Where a name states a change or a piece, a line headed by the entry shows the natural chain unless it says otherwise.
UniProt P63330: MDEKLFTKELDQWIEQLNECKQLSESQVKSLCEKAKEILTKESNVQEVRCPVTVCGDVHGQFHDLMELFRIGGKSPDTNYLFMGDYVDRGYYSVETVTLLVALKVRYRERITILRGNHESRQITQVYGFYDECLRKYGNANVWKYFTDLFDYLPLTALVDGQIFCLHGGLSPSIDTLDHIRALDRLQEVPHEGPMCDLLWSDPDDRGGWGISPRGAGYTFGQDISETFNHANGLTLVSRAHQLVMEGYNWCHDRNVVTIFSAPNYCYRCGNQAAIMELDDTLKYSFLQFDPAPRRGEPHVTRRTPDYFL
UniProt P67775: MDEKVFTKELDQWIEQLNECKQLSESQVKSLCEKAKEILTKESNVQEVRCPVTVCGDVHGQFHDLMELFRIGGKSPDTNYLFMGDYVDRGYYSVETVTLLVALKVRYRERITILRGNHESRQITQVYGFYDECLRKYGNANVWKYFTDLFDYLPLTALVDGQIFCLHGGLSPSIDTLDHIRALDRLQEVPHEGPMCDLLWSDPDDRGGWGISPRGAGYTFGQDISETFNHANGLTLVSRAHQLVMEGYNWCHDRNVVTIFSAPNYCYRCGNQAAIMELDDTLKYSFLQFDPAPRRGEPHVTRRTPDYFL

[2] = biological target: T1, FBP1 (mouse liver) (mouse (endogenous in liver)); assay: co-IP
[3] = biological target: T1, FBP1 (mouse liver) (mouse (endogenous in liver)); assay: SEC
[4] = biological target: T2, V5-FBP1^E98A (human) (UniProt P09467); assay: co-IP
T2 sequence: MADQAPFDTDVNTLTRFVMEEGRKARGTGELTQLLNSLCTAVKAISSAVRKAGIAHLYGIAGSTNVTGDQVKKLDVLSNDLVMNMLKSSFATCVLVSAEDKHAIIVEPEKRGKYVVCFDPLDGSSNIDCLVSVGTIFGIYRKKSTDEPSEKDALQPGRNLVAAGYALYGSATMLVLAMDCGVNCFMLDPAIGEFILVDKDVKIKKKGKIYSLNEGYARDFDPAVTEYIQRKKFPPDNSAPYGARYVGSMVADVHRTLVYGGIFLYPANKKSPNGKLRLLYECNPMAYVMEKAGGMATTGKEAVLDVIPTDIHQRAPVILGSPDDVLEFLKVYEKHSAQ

[5] = biological target: T3, V5-FBP1 (human) (UniProt P09467); assay: co-IP
T3 sequence: T2 sequence with A98E

[6] = biological target: T4, V5-FBP1^L329P (human) (UniProt P09467); assay: co-IP
T4 sequence: T2 sequence with A98E, L329P

[7] = biological target: V5-FBP1 ΔE7 (human) (UniProt P09467); assay: co-IP
[8] = biological target: V5-FBP1 ΔE1 (human) (UniProt P09467); assay: co-IP

binding [4]	binding [5]	binding [6]	binding [7]	binding [8]	Substance	binding [1]	binding [2]	binding [3]
–	–	–	–	–	PP2A-C (mouse liver) (from UniProt P63330) (enzyme)	binds	binds	binds
binds	binds	no binding	no binding	binds	PP2A-C (Huh7 cells) (from UniProt P67775) (enzyme)	–	–	–
